Holding throughout (test): log2 fold change, soluble protein after heating vs DMSO (PISA); higher = thermal stabilisation; K562 cells, 10 uM, 30 min; active = over 0.2 and 3.5 SD of the protein, either way, in both replicates (recomputed)
Compound in test [1]: C1=CC=C(C=C1)[C@H](COC2=CC3=C(C=C2)NC(=O)N3)NC(=O)C4=CC=CN(C4=O)CC5=CC(=C(C=C5)F)F
The method in brief: (§1)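 K562 cells at 2×10^6 cells/mL were given 10 μM compound for 30 min. Aliquots then went through 3 min of heating across 48°C-58°C, were pooled, and were extracted in PBS with 0.5% NP-40 at 4°C, and the supernatant after 21,000xg for 90 min was quantified by TMTpro 16plex LC-MS/MS with channel sums equalised. Thermal stability relative to control samples, from duplicates, is given as log2 fold change.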

Protein sequences, listed by entry. Tags and fused reporters are not part of them. Lines headed by an entry give the natural chain unless they say otherwise; changes in a name come on top.
UniProt O14576, whole entry, looked up: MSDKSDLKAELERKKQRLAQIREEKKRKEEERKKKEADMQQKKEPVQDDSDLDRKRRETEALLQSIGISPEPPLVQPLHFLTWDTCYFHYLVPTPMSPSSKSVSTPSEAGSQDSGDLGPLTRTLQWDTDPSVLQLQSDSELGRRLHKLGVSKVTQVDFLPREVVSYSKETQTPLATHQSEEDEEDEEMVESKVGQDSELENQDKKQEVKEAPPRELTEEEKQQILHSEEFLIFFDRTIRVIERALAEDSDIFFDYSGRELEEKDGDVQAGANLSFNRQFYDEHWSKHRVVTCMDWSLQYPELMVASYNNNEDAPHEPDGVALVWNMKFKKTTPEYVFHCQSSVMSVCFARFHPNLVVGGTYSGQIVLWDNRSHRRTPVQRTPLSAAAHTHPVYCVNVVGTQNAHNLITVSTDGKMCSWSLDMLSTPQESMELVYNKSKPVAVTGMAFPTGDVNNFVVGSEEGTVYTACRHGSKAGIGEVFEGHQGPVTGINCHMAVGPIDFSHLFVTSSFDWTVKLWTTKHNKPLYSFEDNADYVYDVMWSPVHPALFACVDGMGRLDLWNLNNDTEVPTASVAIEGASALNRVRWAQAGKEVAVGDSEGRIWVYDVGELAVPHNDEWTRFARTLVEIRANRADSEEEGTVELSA
UniProt Q96DC8: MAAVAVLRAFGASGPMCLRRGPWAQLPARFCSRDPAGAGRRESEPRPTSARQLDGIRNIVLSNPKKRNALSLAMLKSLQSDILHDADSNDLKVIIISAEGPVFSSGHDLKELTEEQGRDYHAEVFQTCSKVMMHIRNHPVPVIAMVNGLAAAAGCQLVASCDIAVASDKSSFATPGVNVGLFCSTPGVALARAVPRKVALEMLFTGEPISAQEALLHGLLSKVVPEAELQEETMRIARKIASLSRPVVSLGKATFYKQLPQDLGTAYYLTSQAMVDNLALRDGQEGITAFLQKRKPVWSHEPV
UniProt Q9BVM2: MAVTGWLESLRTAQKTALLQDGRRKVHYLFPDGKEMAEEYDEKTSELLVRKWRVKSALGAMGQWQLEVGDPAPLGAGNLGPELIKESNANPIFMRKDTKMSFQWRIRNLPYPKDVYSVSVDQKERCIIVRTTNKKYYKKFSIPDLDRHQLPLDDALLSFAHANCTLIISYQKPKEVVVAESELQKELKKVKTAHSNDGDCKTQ
UniProt Q4LDG9: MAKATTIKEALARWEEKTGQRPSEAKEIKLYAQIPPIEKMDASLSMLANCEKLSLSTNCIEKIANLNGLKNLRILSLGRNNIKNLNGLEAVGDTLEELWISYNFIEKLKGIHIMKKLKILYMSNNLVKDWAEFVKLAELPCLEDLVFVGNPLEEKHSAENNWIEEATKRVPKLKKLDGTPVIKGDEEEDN
UniProt Q96FN9: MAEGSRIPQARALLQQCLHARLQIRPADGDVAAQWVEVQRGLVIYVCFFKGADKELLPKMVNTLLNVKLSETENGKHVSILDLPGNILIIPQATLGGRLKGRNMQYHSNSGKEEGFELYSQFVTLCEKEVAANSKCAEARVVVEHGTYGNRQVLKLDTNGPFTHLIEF
UniProt Q16610: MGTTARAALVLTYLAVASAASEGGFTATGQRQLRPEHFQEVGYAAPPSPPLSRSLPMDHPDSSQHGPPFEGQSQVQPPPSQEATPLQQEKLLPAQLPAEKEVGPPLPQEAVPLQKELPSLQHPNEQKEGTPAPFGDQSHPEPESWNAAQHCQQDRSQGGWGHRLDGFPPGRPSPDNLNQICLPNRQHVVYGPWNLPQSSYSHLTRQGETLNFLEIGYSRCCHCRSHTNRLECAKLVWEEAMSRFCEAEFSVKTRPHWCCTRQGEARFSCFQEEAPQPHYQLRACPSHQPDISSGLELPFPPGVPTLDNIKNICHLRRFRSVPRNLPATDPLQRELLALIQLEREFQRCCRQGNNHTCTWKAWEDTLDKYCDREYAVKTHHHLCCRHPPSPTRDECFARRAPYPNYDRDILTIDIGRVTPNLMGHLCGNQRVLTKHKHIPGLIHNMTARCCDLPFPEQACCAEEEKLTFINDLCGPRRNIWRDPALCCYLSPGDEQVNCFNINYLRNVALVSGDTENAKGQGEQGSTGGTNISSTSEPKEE
UniProt Q9H1X3: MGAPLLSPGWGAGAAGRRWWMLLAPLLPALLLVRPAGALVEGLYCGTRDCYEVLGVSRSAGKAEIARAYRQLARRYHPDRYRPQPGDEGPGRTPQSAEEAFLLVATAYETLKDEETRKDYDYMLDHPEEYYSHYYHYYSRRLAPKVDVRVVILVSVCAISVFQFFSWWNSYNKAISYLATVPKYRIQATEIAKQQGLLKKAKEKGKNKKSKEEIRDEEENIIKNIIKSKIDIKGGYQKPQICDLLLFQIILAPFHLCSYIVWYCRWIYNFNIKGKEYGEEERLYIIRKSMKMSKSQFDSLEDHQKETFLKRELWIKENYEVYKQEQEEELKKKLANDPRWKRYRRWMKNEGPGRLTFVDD
UniProt Q05193: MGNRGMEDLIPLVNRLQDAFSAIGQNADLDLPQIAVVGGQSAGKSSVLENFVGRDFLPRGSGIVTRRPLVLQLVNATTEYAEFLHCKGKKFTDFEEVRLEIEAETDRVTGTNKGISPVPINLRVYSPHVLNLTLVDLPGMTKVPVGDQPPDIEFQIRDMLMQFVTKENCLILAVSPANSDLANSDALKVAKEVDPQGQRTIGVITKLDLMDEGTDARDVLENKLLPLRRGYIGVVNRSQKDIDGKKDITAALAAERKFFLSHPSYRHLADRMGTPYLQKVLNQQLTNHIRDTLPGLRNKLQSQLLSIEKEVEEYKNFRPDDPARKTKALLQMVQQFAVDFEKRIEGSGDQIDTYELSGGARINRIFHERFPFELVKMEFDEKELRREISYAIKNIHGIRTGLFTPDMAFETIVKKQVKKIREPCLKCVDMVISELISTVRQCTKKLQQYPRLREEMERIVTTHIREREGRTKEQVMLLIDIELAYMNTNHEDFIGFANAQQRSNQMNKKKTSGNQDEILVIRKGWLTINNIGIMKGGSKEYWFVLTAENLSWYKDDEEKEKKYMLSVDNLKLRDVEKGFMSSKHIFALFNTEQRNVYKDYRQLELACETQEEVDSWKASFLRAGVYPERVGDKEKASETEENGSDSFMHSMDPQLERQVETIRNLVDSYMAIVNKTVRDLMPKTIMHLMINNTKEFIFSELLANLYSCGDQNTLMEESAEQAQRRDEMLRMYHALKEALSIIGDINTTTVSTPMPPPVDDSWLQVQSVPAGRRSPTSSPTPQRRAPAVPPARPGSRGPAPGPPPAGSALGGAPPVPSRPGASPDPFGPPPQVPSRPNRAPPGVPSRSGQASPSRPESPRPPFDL
UniProt P50570: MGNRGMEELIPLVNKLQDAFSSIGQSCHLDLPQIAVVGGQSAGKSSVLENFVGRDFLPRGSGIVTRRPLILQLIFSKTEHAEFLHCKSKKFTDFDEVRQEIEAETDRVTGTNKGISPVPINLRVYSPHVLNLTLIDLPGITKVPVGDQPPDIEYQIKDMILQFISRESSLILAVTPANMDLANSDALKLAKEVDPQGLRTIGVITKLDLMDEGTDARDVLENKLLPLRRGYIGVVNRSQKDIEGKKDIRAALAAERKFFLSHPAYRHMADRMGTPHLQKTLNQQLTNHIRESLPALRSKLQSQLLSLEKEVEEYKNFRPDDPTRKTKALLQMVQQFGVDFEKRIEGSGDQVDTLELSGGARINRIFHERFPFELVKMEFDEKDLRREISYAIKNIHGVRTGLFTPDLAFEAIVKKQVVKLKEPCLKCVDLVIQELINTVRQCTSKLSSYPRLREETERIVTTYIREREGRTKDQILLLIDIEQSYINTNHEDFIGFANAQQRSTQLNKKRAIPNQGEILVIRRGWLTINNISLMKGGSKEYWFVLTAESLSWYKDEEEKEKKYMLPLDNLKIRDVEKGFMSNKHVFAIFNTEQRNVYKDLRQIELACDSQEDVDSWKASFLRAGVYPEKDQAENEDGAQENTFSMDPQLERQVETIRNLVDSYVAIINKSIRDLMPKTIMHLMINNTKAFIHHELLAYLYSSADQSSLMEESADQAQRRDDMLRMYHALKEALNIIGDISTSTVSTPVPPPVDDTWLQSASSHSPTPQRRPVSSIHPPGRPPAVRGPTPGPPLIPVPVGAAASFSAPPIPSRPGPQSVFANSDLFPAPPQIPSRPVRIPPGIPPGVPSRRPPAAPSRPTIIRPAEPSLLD
UniProt Q6NUT2: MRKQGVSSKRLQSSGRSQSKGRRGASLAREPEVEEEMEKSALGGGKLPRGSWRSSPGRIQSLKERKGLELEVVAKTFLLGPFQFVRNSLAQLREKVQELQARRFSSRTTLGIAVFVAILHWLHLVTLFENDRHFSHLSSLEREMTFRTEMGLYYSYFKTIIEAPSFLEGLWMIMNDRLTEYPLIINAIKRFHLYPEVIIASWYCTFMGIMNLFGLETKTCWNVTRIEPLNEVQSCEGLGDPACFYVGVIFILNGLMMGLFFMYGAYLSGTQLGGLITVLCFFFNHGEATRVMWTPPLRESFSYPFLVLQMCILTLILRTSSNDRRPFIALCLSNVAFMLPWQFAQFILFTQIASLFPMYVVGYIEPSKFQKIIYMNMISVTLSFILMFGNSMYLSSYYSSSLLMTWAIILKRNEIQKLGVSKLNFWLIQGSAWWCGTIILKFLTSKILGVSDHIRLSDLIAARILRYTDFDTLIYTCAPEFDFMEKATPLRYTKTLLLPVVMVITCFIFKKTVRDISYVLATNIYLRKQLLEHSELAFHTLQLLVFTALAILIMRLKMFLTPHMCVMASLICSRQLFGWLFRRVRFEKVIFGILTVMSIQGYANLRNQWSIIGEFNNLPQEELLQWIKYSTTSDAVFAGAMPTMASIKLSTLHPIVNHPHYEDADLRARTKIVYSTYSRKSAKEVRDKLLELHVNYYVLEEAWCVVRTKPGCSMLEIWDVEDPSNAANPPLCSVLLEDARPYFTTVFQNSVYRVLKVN
UniProt P26358: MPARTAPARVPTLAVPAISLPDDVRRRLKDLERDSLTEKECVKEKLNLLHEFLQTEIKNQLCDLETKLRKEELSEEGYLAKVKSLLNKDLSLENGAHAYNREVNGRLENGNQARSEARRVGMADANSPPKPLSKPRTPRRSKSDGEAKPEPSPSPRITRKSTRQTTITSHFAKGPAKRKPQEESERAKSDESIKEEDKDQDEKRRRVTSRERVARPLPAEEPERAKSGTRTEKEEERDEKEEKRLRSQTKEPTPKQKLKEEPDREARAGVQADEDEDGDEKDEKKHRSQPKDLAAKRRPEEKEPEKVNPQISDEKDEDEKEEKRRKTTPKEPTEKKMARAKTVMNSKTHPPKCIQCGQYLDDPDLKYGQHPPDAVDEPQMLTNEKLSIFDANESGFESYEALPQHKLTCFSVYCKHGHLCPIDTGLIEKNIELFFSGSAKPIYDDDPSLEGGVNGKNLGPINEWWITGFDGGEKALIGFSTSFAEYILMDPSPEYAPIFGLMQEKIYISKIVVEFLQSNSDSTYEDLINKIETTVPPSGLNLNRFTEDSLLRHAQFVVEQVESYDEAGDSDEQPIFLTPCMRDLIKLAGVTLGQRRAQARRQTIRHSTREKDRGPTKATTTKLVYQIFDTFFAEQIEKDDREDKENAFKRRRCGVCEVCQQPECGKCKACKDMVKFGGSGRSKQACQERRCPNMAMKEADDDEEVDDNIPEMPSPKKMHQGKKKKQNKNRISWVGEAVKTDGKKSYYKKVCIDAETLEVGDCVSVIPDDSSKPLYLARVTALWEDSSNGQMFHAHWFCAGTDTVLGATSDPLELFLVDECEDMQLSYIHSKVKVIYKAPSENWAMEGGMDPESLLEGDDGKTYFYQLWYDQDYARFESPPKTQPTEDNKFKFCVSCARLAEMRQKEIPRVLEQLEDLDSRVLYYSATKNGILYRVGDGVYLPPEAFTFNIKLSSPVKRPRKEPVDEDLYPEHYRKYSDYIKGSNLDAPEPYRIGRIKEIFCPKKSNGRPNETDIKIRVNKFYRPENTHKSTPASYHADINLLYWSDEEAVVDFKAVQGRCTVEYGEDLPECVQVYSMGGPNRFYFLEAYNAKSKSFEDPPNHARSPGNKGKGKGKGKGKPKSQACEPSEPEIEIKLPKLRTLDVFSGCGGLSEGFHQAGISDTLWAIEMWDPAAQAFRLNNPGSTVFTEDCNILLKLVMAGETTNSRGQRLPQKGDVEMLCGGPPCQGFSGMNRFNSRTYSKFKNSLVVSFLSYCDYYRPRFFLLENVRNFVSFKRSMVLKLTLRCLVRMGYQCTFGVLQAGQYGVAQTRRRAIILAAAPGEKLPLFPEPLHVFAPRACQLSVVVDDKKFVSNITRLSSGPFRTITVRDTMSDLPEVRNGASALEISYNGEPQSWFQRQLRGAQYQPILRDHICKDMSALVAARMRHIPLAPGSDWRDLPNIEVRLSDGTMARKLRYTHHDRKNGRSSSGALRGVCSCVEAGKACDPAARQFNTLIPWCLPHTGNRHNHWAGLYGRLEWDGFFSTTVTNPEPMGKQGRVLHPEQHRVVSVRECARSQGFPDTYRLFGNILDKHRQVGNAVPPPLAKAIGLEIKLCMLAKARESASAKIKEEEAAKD

Compound in test [2]: CC1=C(SC2=C1C(=N[C@H](C3=NN=C(N32)C)CC(=O)N)C4=CC=C(C=C4)Cl)C
The method in brief: as §1

Compound in test [3]: CC1=C2C(=CC=C1)N=C(N(C2=O)C3=CC=CC=C3C)CN4C=NC5=C(N=CN=C54)N
The method in brief:
as §1

Compound in test [4]: c1ccc([C@@H]2C[C@H]2NC2CCNCC2)cc1
The method in brief: as §1

Compound in test [5]: Cc1sc2c(c1C)C(c1ccc(Cl)cc1)=N[C@@H](CC(=O)OC(C)(C)C)c1nnc(C)n1-2
The method in brief:
as §1

The list shows a part of the results.

For the target DOCK1 (UniProt Q14185), the log2 fold change in test [1] is inactive: 0.016; in test [2] it was inactive: 0.098; in test [3] it was inactive: 0.349; in test [4], inactive: 0.1.
For the target DPYSL3 isoform 2 (UniProt Q14195), the log2 fold change in test [3] was inactive: 0.028.
With DYNC1I1 (UniProt O14576), the log2 fold change in test [3] is inactive: 0.15.
As to EAPP (UniProt Q56P03), the log2 fold change was inactive: 0.057 in test [2], inactive: 0.053 in test [3], inactive: -0.116 in test [5] and inactive: -0.085 in test [4].
Turning to DOLK (UniProt Q9UPQ8), the log2 fold change in test [1] was inactive: 0.066; in test [2], inactive: 0.078; in test [4] it was inactive: 0.1.
Consider ECHDC3 (UniProt Q96DC8), for which the log2 fold change in test [1] was inactive: -0.023; in test [3] it was inactive: 0.012; in test [5], inactive: -0.044.
DYNC1I2 isoform 2 (UniProt Q13409): the log2 fold change in test [1] was inactive: 0.028; in test [2] it was inactive: -0.059; in test [5] it was inactive: -0.068; in test [4] it was inactive: 0.14.
DPCD (UniProt Q9BVM2): the log2 fold change in test [3] was inactive: 0.018.
Turning to DNAL1 (UniProt Q4LDG9), the log2 fold change in test [1] is inactive: 0.146; in test [2], inactive: 0.086; in test [3] it was inactive: -0.264; in test [4], inactive: 0.03.
On to ECI1 (UniProt P42126), for which the log2 fold change is inactive: 0.023 in test [1]; inactive: 0.09 in test [2]; inactive: 0.089 in test [3]; inactive: -0.083 in test [5]; inactive: -0.011 in test [4].
Turning to DRAM2 (UniProt Q6UX65), the log2 fold change in test [2] is inactive: 0.023; in test [3], inactive: 0.057; in test [5] it was inactive: -0.077; in test [4], inactive: 0.195.
In the case of DONSON (UniProt Q9NYP3), the log2 fold change in test [2] was inactive: -0.102; in test [3], inactive: 0.083; in test [5], inactive: 0.154; in test [4], inactive: 0.017.
Consider DOP1A (UniProt Q5JWR5), for which the values for the log2 fold change in test [1] and in test [3] were inactive: 0.203 and inactive: 0.049, respectively.
On to DOCK10 (UniProt Q96BY6), for which the log2 fold change was inactive: -0.109 in test [3] and inactive: 0 in test [5].
Take DNPEP (UniProt B9ZVU2): the log2 fold change in test [2] was inactive: 0.105; in test [3] it was inactive: -0.024; in test [5] it was inactive: -0.051; in test [4], inactive: 0.307.
In the case of DUSP9 (UniProt Q99956), the log2 fold change in test [3] was inactive: 0.096.
For DYNC2LI1 isoform 2 (UniProt Q8TCX1), the log2 fold change was inactive: -0.125 in test [2], inactive: 0.203 in test [3] and inactive: -0.255 in test [4].
On to DNAJB14 (UniProt H7C494), for which the log2 fold change in test [3] is inactive: 0.025.
Regarding DNPH1 (UniProt H0Y8X4), the figures for the log2 fold change in test [2], in test [5] and in test [4] were inactive: -0.006, inactive: -0.08 and inactive: 0.065, respectively.
Take DTD2 (UniProt Q96FN9): the log2 fold change in test [2] was inactive: 0.051; in test [3] it was inactive: 0.055; in test [5] it was inactive: -0.049; in test [4] it was inactive: -0.113.
With DNPEP (UniProt C9JBE1), the log2 fold change in test [1] was inactive: 0.091; in test [3], inactive: 0.097; in test [5] it was inactive: 0.087.
Consider EARS2 isoform 2 (UniProt Q5JPH6), for which the log2 fold change in test [1] is inactive: -0.428; in test [3], inactive: 0.192; in test [5], inactive: -0.13.
On the same counts, the results for ECM1 isoform 2 (UniProt Q16610) are inactive: 0.142, inactive: -0.292 and inactive: -0.368.
DSN1 (UniProt Q9H410): the log2 fold change in test [1] was inactive: 0.02; in test [2] it was inactive: 0.016; in test [3] it was inactive: 0.059; in test [5], inactive: 0.045; in test [4] it was inactive: -0.054.
As to EDRF1 (UniProt Q3B7T1), the log2 fold change in test [1] is inactive: 0.043; in test [2], inactive: 0.245; in test [4] it was inactive: -0.061.
Take DUS1L (UniProt Q6P1R4): the log2 fold change in test [2] is inactive: -0.097; in test [5], inactive: 0.147; in test [4], inactive: 0.033.
DYNLT3 (UniProt P51808): the log2 fold change in test [1] is inactive: -0.182; in test [2] it was inactive: 0.029; in test [4], inactive: 0.036.
For DNAJC25 (UniProt Q9H1X3), the values for the log2 fold change in test [1] and in test [5] were inactive: 0.083 and inactive: -0.01, respectively.
For the target DR1 (UniProt Q01658), the log2 fold change in test [1] was inactive: -0.063; in test [2], inactive: 0.02; in test [3], inactive: 0.094; in test [5], inactive: -0.021; in test [4] it was inactive: 0.052.
For the target DNM1 (UniProt Q05193), the log2 fold change in test [3] is inactive: 0.258.
Turning to DNAJC5 (UniProt Q9H3Z4), the log2 fold change in test [1] was inactive: 0.029; in test [3], inactive: 0.078; in test [5] it was inactive: 0.042.
With DROSHA (UniProt Q9NRR4), the log2 fold change is inactive: -0.242 in test [2], inactive: 0.226 in test [5] and inactive: -0.195 in test [4].
DYSF isoform 13 (UniProt O75923): the log2 fold change in test [1] was inactive: -0.001; in test [3] it was inactive: -0.264; in test [5], inactive: 0.11.
DNM2 isoform 4 (UniProt P50570): the values for the log2 fold change in test [1], in test [2] and in test [4] were inactive: 0.015, inactive: 0.065 and inactive: -0.022, respectively.
For DUS2 (UniProt Q9NX74), the log2 fold change in test [1] is inactive: 0.024; in test [2], inactive: 0.055; in test [3], inactive: 0.109; in test [5], inactive: -0.087; in test [4], inactive: -0.023.
Consider DPY19L2 (UniProt Q6NUT2), for which the log2 fold change in test [1] is inactive: -0.078; in test [3], inactive: -0.17; in test [5] it was inactive: -0.059.
For DNMT1 isoform 2 (UniProt P26358), the log2 fold change was inactive: -0.007 in test [1]; inactive: 0.041 in test [2]; inactive: 0.032 in test [3]; inactive: -0.009 in test [5]; inactive: -0.025 in test [4].
In the case of DRAP1 (UniProt E9PQX9), in test [5], the log2 fold change was inactive: -0.02.
On to DUSP12 (UniProt V9GYV5), for which the log2 fold change in test [3] was inactive: 0.

(Values after the supplement of paper PMC10849652.)
